According to patent US20170065662A1:
Results are given in words; binding and its absence hold for the method and conditions named. For part of these data: In cells and extracts the contact can be indirect. Some results given as binding are weak or reduced against the parent protein; the word gives no strength.

By UniProt entry, the sequences of proteins in these tests, tags left out. Chains listed by the source or under a name are the forms on record and can include a tag or linker. Residues count along the entry.
GST-Brk SH2 (recombinant GST-tagged SH2 domain of Brk) (Q13882, residues 78-170): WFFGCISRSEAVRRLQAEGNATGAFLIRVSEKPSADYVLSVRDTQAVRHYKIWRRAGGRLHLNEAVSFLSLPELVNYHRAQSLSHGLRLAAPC
UniProt P42685, residues 42-110: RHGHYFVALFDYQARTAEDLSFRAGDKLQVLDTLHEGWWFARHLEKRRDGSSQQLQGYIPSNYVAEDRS

Tests used:
[1] = target: recombinant His-p27 (full-length p27Kip1, C-terminal histidine tag) (human) (UniProt P46527); experiment: His pull-down (metal agarose chromatography), GST immunoblot
[2] = target: recombinant His-p27 (full-length p27Kip1, C-terminal histidine tag) (human) (UniProt P46527); experiment: His pull-down (metal agarose chromatography), GST immunoblot, without ATP
[3] = target: His-p27 mutant ΔK1/K3 (PPPP91,92,94,95AAAA and PKKP188,189,190,191AAAA) (human) (UniProt P46527); experiment: as above
[4] = target: recombinant His-p27 (full-length p27Kip1, C-terminal histidine tag) (human) (UniProt P46527); experiment: His pull-down, summary of FIG. 3
[5] = target: recombinant His-cyclin D1-cdk4 complex (UniProt P24385); experiment: incubation of recombinant proteins, cdk4 immunoprecipitation
[6] = target: recombinant His-p27 (full-length p27Kip1, C-terminal histidine tag) (human) (UniProt P46527); experiment: phage-ELISA on His-p27
[7] = target: GST (GST domain expressed in the absence of any p27 or Brk sequence) [GST: P08515]; experiment: phage-ELISA on immobilised GST
[8] = target: endogenous p27 in breast cell lysates (human) (UniProt P46527); experiment: reciprocal co-immunoprecipitation from breast cell lysates (Brk IP / p27 blot, p27 IP / Brk blot)

GST-Brk (full length GST-PTK6/Brk, SignalChem) (from UniProt Q13882 1-451) (enzyme)
binding [1]: binds

GST-Brk SH2 (recombinant GST-tagged SH2 domain of Brk) (from UniProt Q13882 78-170)
binding [2]: binds | binding [3]: binds | binding [4]: binds

His-p27 mutant Y74F (from UniProt P46527 1-198)
binding [5]: binds

His-p27 mutant Y88F (from UniProt P46527 1-198)
binding [5]: binds

His-p27 mutant ΔK1 (PPPP91,92,94,95AAAA) (from UniProt P46527 1-198)
binding [5]: binds

His-p27 mutant ΔK1/K3 (PPPP91,92,94,95AAAA and PKKP188,189,190,191AAAA) (from UniProt P46527 1-198)
binding [5]: binds

SH3 domain of Frk displayed on phage (from UniProt P42685 42-110)
binding [6]: binds | binding [7]: binds

endogenous Brk in breast cell lysates (MCF7, MDA MB 231, MCF10A) (from UniProt Q13882 1-451) (enzyme)
binding [8]: binds

recombinant His-p27 (full-length p27Kip1, C-terminal histidine tag) (from UniProt P46527 1-198)
binding [5]: binds
